Results are given in words; binding and its absence hold for the method and conditions named. Binding seen in cells or lysates may run through a third protein. Some results given as binding are weak or reduced against the parent protein; the word gives no strength.
Target: α1β1 integrin (human (endogenous in OA chondrocytes)) (UniProt P56199+P05556)
Assay: co-IP; 100 μg total protein of OA chondrocytes (48 h on unmodified or HNE-modified Col II-coated plates, MR 1:20 to 1:200) precipitated with 1 μg mouse anti-human α1β1 integrin in KLB buffer with 0.5 M NaCl overnight at 4°C, then protein A for two hours; blotted with anti-pFAK or anti-α1β1 integrin

By UniProt entry, the sequences of proteins in these tests, tags left out. Where a name states a change or a piece, a line headed by the entry shows the natural chain unless it says otherwise.
UniProt P56199: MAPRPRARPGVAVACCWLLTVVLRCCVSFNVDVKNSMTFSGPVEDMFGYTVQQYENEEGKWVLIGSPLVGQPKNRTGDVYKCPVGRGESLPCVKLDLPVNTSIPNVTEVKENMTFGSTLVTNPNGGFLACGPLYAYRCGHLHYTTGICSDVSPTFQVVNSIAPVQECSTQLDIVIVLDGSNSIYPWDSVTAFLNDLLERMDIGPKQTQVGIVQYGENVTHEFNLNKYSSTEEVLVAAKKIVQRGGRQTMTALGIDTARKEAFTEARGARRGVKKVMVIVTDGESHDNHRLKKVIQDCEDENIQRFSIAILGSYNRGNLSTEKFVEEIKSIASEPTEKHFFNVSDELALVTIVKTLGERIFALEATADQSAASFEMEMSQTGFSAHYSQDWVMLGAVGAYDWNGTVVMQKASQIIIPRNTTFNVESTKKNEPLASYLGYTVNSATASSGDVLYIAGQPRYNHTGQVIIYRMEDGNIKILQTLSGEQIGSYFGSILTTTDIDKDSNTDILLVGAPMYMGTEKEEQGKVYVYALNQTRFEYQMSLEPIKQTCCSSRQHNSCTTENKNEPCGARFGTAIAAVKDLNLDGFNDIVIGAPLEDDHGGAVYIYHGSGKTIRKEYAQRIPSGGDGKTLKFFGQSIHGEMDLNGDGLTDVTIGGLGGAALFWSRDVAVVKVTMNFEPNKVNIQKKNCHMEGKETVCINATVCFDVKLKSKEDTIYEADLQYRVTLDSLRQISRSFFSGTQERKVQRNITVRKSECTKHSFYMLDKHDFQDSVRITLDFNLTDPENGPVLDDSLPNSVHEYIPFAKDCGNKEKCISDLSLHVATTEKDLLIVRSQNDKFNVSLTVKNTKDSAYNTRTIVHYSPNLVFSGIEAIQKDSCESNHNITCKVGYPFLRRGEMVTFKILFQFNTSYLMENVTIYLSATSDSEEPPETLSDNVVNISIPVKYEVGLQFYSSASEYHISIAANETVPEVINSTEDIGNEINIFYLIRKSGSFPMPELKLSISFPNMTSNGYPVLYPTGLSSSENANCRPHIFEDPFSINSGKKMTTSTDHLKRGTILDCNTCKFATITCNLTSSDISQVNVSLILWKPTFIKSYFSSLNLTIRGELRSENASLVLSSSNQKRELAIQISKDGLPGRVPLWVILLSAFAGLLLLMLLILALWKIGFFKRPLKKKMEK
UniProt P05556: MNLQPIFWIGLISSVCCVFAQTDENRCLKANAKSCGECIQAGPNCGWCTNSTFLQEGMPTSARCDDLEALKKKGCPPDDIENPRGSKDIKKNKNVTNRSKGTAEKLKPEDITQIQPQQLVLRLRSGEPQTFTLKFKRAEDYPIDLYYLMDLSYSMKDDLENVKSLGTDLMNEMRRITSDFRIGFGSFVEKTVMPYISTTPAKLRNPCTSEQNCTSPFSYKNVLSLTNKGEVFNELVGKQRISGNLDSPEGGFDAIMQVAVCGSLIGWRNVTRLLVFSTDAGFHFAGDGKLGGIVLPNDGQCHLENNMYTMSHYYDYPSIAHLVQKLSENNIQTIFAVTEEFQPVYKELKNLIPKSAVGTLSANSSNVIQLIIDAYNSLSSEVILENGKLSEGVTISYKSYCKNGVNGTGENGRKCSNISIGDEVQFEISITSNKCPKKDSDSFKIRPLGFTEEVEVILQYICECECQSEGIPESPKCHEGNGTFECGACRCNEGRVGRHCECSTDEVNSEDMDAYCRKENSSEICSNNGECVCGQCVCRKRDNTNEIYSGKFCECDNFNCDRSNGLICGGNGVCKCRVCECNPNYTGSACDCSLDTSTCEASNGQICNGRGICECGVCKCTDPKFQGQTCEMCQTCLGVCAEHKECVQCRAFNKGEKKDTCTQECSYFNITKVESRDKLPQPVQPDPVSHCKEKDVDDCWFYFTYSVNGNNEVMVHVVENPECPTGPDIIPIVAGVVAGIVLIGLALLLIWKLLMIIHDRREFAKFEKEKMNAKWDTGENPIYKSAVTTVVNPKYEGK
UniProt Q05397: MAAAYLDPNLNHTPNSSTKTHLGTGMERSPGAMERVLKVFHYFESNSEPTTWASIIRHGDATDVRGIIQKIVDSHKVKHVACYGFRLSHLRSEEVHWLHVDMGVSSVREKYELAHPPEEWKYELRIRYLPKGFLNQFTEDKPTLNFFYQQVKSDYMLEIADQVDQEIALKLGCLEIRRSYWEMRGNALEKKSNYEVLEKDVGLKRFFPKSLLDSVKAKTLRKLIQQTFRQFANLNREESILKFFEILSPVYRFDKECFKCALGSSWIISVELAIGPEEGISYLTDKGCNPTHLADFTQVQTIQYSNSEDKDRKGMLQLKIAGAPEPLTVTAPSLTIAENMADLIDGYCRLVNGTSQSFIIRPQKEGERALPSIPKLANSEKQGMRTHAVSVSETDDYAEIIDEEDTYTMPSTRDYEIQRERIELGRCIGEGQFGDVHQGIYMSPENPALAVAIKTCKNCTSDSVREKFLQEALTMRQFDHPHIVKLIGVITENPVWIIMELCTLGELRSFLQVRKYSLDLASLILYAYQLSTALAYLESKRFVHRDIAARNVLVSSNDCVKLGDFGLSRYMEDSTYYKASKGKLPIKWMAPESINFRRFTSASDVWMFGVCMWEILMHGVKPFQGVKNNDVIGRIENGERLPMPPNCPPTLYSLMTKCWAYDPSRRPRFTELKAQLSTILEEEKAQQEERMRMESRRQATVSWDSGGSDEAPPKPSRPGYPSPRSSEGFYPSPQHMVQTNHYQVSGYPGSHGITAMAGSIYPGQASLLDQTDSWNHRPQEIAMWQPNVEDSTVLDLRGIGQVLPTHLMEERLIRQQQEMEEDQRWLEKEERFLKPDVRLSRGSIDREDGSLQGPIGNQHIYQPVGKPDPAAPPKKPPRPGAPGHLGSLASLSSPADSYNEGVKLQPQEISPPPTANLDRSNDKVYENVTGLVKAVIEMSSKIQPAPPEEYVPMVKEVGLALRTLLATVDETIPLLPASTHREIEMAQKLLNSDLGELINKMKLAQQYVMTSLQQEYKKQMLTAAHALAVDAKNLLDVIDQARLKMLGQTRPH

binding: binds
Substance: phosphorylated focal adhesion kinase (from UniProt Q05397 1-1052)
